Assay results taken from publication PMC8038998.
Results are given in words; binding and its absence hold for the method and conditions named. Binding seen in cells or lysates may run through a third protein.

Chains of the proteins cited; added tags and fusions are not shown. Lines headed by an entry give the natural chain unless they say otherwise; changes in a name come on top.
UniProt Q6ZN28: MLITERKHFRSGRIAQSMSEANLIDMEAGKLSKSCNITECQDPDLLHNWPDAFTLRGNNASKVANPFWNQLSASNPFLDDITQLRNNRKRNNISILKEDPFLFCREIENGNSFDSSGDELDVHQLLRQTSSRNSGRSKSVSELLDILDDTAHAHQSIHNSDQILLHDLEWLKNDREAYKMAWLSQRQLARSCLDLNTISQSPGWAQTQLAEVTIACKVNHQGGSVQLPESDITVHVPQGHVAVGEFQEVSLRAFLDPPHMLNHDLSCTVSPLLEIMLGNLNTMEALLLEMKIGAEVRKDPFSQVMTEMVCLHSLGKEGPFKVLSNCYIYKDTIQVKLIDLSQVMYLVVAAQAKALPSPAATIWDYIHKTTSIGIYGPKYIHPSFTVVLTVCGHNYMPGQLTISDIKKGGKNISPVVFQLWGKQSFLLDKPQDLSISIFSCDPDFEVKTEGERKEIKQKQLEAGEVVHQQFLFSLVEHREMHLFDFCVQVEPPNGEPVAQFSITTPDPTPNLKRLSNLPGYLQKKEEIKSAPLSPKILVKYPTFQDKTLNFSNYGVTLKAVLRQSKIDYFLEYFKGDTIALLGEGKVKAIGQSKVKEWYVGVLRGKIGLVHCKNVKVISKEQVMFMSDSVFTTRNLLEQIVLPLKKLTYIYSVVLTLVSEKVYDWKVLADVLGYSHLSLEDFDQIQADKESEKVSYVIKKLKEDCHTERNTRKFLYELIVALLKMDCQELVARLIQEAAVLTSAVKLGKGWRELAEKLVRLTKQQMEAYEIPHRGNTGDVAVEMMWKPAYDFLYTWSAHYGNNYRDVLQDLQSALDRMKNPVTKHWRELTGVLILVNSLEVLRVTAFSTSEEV
UniProt Q00610: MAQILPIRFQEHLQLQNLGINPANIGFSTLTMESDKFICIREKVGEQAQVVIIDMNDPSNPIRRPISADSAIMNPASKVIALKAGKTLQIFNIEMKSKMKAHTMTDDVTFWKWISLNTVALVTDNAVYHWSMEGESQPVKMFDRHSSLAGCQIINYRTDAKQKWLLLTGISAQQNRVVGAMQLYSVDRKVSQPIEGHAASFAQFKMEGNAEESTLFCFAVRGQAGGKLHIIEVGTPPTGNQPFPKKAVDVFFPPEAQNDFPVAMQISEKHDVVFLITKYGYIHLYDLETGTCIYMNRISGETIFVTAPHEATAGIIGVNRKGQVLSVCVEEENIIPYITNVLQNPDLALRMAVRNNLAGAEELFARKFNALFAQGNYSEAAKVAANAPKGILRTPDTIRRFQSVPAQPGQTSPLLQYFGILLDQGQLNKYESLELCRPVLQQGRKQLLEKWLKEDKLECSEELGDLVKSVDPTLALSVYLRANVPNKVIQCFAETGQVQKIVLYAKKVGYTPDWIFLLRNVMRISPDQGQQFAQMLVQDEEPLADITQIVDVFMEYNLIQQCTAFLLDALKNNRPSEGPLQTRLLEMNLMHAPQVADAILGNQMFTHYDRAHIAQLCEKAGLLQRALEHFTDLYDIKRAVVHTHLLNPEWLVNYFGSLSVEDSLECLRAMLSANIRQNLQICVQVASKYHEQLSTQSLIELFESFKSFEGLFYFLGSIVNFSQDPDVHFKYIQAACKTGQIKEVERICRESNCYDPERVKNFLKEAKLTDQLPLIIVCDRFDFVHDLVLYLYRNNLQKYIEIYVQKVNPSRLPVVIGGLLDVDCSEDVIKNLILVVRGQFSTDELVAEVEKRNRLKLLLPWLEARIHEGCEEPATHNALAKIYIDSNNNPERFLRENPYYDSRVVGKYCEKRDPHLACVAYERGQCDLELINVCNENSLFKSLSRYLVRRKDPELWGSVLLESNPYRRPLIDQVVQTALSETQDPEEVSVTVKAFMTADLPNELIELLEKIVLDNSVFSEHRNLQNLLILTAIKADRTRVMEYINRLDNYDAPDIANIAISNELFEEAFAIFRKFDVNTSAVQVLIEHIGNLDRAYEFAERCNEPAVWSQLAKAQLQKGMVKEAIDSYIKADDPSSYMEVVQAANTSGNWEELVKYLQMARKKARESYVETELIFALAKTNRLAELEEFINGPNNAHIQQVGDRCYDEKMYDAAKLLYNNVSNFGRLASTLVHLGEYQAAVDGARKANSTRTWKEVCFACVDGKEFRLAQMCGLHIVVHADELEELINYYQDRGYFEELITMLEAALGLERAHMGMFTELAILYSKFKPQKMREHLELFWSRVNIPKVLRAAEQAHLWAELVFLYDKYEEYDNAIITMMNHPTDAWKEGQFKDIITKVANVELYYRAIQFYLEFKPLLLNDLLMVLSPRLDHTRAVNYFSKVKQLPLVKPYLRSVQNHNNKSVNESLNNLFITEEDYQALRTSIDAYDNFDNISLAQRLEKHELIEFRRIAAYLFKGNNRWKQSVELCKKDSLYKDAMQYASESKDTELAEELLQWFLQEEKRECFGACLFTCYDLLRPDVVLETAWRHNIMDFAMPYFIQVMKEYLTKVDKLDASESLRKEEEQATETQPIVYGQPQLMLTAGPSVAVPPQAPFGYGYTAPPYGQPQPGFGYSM

Biological target: MACC1ΔSH3-GFP (MACC1 with deleted SH3-domain, C-terminal GFP) (human) (UniProt Q6ZN28)
Assay: co-IP; IP (pull-down) of MACC1 or its GFP-tagged variants from lysates of SW620, SW480/MACC1, SW480/MACC1-GFP and SW480 deletion-variant cells; CoIP lysing buffer (20 mM Tris–HCl pH 7.5, 150 mM NaCl, 0.1% NP40, 1 mM EDTA, 1% Triton X 100), antibody over night at 4 °C, protein-G Sepharose; Western blot

binding: no binding
Substance: clathrin heavy chain 1 (CLTC) (from UniProt Q00610 1-1675)
